Results as given in paper PMC7819943, “Rice protein-binding microarrays: a tool to detect cis-acting elements near promoter regions in rice”.
Some of the results follow.

Protein sequences, listed by entry. Tags and fused reporters are not part of them.
UniProt Q0JBA9, entry or part of it: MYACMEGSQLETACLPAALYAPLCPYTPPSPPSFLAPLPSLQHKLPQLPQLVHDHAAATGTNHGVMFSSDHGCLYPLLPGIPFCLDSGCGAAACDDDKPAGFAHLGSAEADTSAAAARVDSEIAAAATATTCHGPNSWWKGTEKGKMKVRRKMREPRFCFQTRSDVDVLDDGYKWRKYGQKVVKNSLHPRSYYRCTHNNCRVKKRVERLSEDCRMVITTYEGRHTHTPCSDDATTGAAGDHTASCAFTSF

biological target: OsWRKY34 (Oryza sativa, UniProt Q0JBA9 1-250); test: protein-binding microarray (RPBM); PBS, 2% BSA, 51.3 ng/ul salmon testes DNA, 50 uM zinc acetate, 200 nM TF, 25 C, 1 h; high values mean tight binding; settings: protein: recombinant; tags: N-terminal polyhistidine and DsRed monomer fusion (pET32a); label: CyDye5-dUTP incorporated in the synthesized complementary strand; 3' TTTTT single-stranded linker to array surface; dsDNA, one strand shown
Outline: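 Ni–NTA purification followed expression in E. coli BL21-CodonPlus of transcription factors fused N-terminally to a polyhistidine tag and DsRed. At 200 nM in PBS with 2% BSA, salmon testes DNA and 50 µM zinc acetate, the protein was incubated for 1 h at 25 °C with a custom Agilent array that had been primer-extended with Cy5-dUTP and blocked with 2% BSA. After washing, the array was read on an Axon 4000B scanner. The binding signal is per-feature fluorescence intensity in arbitrary units.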

Compared with “GTATGTTTTTTTTTTCTTATTGATTTTATGGTAATTCTGTCGGAGTCACCTAGTGCAG”, “TCAGGTTCGTCAGGCGGCCCTAGCCAAAGCCTGCATTCATCGGAGTCACCTAGTGCAG” is lower in binding signal: 8930 fluorescence intensity (a.u.) for the first, 8680 fluorescence intensity (a.u.) for the second.

Compared with “GTGATCCGGTGCCCTCTGACCCGCAACTTCCTTTTGGCACCGGAGTCACCTAGTGCAG”, “TTTGGTCGTCAAACAGTGATGACTCTCCTGGCCGCTGTCTCGGAGTCACCTAGTGCAG” is higher in binding signal: 8460 fluorescence intensity (a.u.) for the first, 8980 fluorescence intensity (a.u.) for the second.

First: CACTTGCTTATCTCAATCAACCACGTCATCTCTAATTTTACGGAGTCACCTAGTGCAG
Second: ATGGGCGGGCAAGGGGCGTGGATAGGCGGAGTTGCCATACCGGAGTCACCTAGTGCAG
The binding signal of the first is higher: 8940 fluorescence intensity (a.u.) for the first, 8790 fluorescence intensity (a.u.) for the second.

Compared with “TTCAAGGTGACTCTTCCTATGCCCAGGGTCCAGTTTTTTCCGGAGTCACCTAGTGCAG”, “ACAAATCGAGGGTGCGTTCGTTCCTGGGAGGGGTTTATGTCGGAGTCACCTAGTGCAG” is higher in binding signal: 11500 fluorescence intensity (a.u.) for the first, 13200 fluorescence intensity (a.u.) for the second.

Compared with “AGTGAATTGAGGGATTTATAGTGAACTTACTCCTTATCTTCGGAGTCACCTAGTGCAG”, “TCATTGCTCGTGTCCTTGTTCTACGCCTACGTTAGCTGTCCGGAGTCACCTAGTGCAG” is higher in binding signal: 8060 fluorescence intensity (a.u.) for the first, 9860 fluorescence intensity (a.u.) for the second.

First: AAATACACTTTACCTACCTATCACTGTTACTACTTTTTTCCGGAGTCACCTAGTGCAG
Second: GTTTTATTTGTGTTTTGCTTTTCTTTTGGTCTCTCTTTTTCGGAGTCACCTAGTGCAG
The binding signal of the first is lower: 8410 fluorescence intensity (a.u.) for the first, 14300 fluorescence intensity (a.u.) for the second.

Compared with “TTTGTGGTTTGGATGTTTTTATCTGTGATTGAATGTATGACGGAGTCACCTAGTGCAG”, “GAGTTGGTTGTGGAGTGCACTGGAGAAGGGGTGGTTTTTGCGGAGTCACCTAGTGCAG” is lower in binding signal: 9210 fluorescence intensity (a.u.) for the first, 9160 fluorescence intensity (a.u.) for the second.

First: CATTTCTTGCTATCATTTTTTCGGGAGGCTTGTATGCCATCGGAGTCACCTAGTGCAG
Second: TTCTTAACATGTTCGCATATGAAAATAGACTTATTTTTTACGGAGTCACCTAGTGCAG
The binding signal of the first is higher: 9200 fluorescence intensity (a.u.) for the first, 8130 fluorescence intensity (a.u.) for the second.

First: TGGAGGGGTGAGGGAGGTGGAGCAGACGTCAGAGGGGAAGCGGAGTCACCTAGTGCAG
Second: CGCCAACCGCCTCGTCGAGCTCTACTCCCGCGCGGGCCTCCGGAGTCACCTAGTGCAG
The binding signal of the first is higher: 9450 fluorescence intensity (a.u.) for the first, 9200 fluorescence intensity (a.u.) for the second.

Compared with “ATATGCTCTTTTCCACCATTTTGCAGGTTAAGGATAGACCCGGAGTCACCTAGTGCAG”, “TTCGCTTTTTCCTTTTTTCTGATTATTTTTTTAATTTTTACGGAGTCACCTAGTGCAG” is lower in binding signal: 9560 fluorescence intensity (a.u.) for the first, 8190 fluorescence intensity (a.u.) for the second.

Going from “CCTCATCTCATGCCTCACTCGCCTAGAACCCCTCCTCCTCCGGAGTCACCTAGTGCAG” to “ACCACCCACCGGTTTCGGTTTCGCCCACCATTGGAGGCGACGGAGTCACCTAGTGCAG”, the binding signal rises from 9310 fluorescence intensity (a.u.) to 11500 fluorescence intensity (a.u.).

Compared with “AGGGCACGGGAACGGGAGACGGGTGGGAGGGATTCGTATGCGGAGTCACCTAGTGCAG”, “TTCTGTCGCCTCATTTATCTTCTTTCTAGTATTCTGCATTCGGAGTCACCTAGTGCAG” is lower in binding signal: 10500 fluorescence intensity (a.u.) for the first, 8170 fluorescence intensity (a.u.) for the second.

Going from “TTTACATTACCGGTTGACCACTAAATTTCGAGCTATATCGCGGAGTCACCTAGTGCAG” to “CAAACCTTCGTCTTCGTCTTCCTCTCGCCGCTGATTCGATCGGAGTCACCTAGTGCAG”, the binding signal rises from 8500 fluorescence intensity (a.u.) to 11000 fluorescence intensity (a.u.).

First: TGGTTGTCTTCAGATTCGATGCGTATGTGCTGAATGTCTACGGAGTCACCTAGTGCAG
Second: TCTTTCTATCATATGCTGCCTGACTTCATTCGTTATATGACGGAGTCACCTAGTGCAG
The binding signal of the first is lower: 8150 fluorescence intensity (a.u.) for the first, 9570 fluorescence intensity (a.u.) for the second.

First: TTTCATTTTTCATCGTCTTTTTTTTCAATCCGATATCTTTCGGAGTCACCTAGTGCAG
Second: AACAGCCTGTTTTTGTGTGTTTTTTTCGTAAGTAATTAGTCGGAGTCACCTAGTGCAG
The binding signal of the first is higher: 9340 fluorescence intensity (a.u.) for the first, 8760 fluorescence intensity (a.u.) for the second.

Compared with “CATATATTGGTGTTGTGTGTGGGTGGGTGGGGCGGTGCTTCGGAGTCACCTAGTGCAG”, “GTGGTAGAGGCGGCGGGGCGGGAGGTCGAACCGGAGCTGACGGAGTCACCTAGTGCAG” is lower in binding signal: 30900 fluorescence intensity (a.u.) for the first, 9910 fluorescence intensity (a.u.) for the second.

Compared with “GCGATAGTGACATATACCCCTAGTTTTATTGCAATCTGACCGGAGTCACCTAGTGCAG”, “TCTGTTCCCCTCGCCGTCGCCGCCACCGCCACCGTGACCGCGGAGTCACCTAGTGCAG” is higher in binding signal: 8200 fluorescence intensity (a.u.) for the first, 9010 fluorescence intensity (a.u.) for the second.

First: CTCTTCCATCTCCTCCACTTCTCAATACCTCTTCATTCTCCGGAGTCACCTAGTGCAG
Second: CACCGACCTGTCCTCCGACCAGAATTCCGATCGCCACCCCCGGAGTCACCTAGTGCAG
The binding signal of the first is higher: 9440 fluorescence intensity (a.u.) for the first, 8140 fluorescence intensity (a.u.) for the second.

First: ACTCATACTCTCTACGTCCATTTGATATTTTACTTAGTCACGGAGTCACCTAGTGCAG
Second: GCTAGGGGTAGGGAAGGAAAAACATACATGTGGCTTCGTGCGGAGTCACCTAGTGCAG
The binding signal of the first is higher: 10500 fluorescence intensity (a.u.) for the first, 8710 fluorescence intensity (a.u.) for the second.

Going from “CATTGTTCGTGACCTCCCCAACTTTCCCACGGGCGGCCACCGGAGTCACCTAGTGCAG” to “GTTCTGTTGTATCCTTTCTTCACGGCAAACGCATGATTTTCGGAGTCACCTAGTGCAG”, the binding signal rises from 8790 fluorescence intensity (a.u.) to 9930 fluorescence intensity (a.u.).

First: GTTCCCAACCTCTGCCTCTCATGACTCATTTTCTGCGCGCCGGAGTCACCTAGTGCAG
Second: ACGGGGACAGGTTTGTGATGTTTGATCACCTTTAAAATGCCGGAGTCACCTAGTGCAG
The binding signal of the first is higher: 9910 fluorescence intensity (a.u.) for the first, 9000 fluorescence intensity (a.u.) for the second.
